# Source: article PMC10089971 (British journal of pharmacology, 2023)
# Structures can show the parent of a compound that is named as a salt.
# Assays:
# [1] = test system: MC38 colon adenocarcinoma cells; assay: MC38 subcutaneous tumor model, anti-tumor efficacy of CPT-11
# [2] = LC-MS of CPT-11 metabolites in intestinal contents; assay type: in vivo; details: saline- or morphine-treated mice, three hours post CPT-11 75 mg/kg
structure (smiles),measurement,setting,value
"CN1CC[C@]23c4c5ccc(O)c4O[C@H]2[C@@H](O)C=C[C@H]3[C@H]1C5 [morphine, Morphine sulfate]",body weight loss in tumor-bearing mice,[1],induced weight loss
same,SN-38G concentration in the small intestine,[2],not significantly different
